Data taken from publication PMC12526889.
Like-named read-outs stand apart in the source and are kept apart here. No constants are given. Whether binding was seen depends on the method and setting. In cells and extracts the contact can be indirect. Here binding means that the protein was enriched with, or labelled near, the bait; the list need not be complete. For part of these data: A no says only that the protein was not detected with the bait. For part of these data: Tags and fused reporters may be left off the sequences shown.

B1: CENH3 (Arabidopsis, endogenous) (protein, UniProt Q8RVQ9 1-178)
chain: MARTKHRVTRSQPRNQTDAAGASSSQAAGPTTTPTRRGGEGGDNTQQTNPTTSPATGTRRGAKRSRQAMPRGSQKKSYRYRPGTVALKEIRHFQKQTNLLIPAASFIREVRSITHMLAPPQINRWTAEALVALQEAAEDYLVGLFSDSMLCAIHARRVTLMRKDFELARRLGGKGRPW

Experiments:
Test in all cases: affinity purification with mass spectrometry; anti-GFP bead matrix (Miltenyi) on RIPA extracts of 1-week-old seedlings of kinetochore-GFP lines; on-bead trypsin digestion, LC-MS/MS; at least two unique peptides in at least two independent experiments, background from 10 negative controls excluded
[1] = biological target: T1, GFP:CENP-C (Arabidopsis reporter line, IP bait) (Arabidopsis thaliana) (UniProt Q66LG9)
T1 sequence: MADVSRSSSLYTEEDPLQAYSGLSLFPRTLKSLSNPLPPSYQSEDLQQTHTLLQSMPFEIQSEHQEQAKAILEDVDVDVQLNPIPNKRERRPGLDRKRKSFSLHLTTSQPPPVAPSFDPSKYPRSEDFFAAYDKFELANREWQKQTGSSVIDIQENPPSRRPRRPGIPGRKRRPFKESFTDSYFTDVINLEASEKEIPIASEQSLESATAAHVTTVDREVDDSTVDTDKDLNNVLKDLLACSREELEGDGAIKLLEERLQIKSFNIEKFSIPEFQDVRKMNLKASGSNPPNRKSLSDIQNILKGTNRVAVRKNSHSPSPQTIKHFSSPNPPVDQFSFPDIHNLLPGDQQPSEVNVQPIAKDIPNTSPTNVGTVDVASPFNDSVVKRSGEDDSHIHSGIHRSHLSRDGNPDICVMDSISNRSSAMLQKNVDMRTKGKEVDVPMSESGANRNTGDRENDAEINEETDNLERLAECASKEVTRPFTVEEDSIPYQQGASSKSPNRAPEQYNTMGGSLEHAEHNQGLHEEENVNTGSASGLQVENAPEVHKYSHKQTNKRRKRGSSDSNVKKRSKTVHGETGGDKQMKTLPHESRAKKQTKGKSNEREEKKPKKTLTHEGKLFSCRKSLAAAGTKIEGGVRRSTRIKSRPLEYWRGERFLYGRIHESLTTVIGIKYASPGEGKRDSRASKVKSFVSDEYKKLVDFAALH

[2] = biological target: T2, CENP-S (Arabidopsis seedlings, IP) (Arabidopsis thaliana) (UniProt Q9FI55)
T2 sequence: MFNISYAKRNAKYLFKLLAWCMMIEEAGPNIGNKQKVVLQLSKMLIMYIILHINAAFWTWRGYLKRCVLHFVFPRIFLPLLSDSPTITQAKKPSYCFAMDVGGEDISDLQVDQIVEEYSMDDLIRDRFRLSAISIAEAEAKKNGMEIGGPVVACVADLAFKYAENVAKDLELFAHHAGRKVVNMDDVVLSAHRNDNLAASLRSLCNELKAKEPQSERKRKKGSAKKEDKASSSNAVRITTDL

[3] = biological target: T1, GFP:CENP-C (Arabidopsis reporter line, IP bait) (Arabidopsis thaliana); remark: listed apart in the source

| Molecule | binding [1] | binding [2] | binding [3] |
| --- | --- | --- | --- |
| NASP | binds | binds | – |
| B1 | – | – | no binding |
